PubChem BioAssay AID1508597 – Cure First – 2020
Purpose: 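Genes whose silencing sensitises or protects ovarian cancer cells against rucaparib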 (primary screen). Cell system: human ovarian carcinoma lines grown from tumours: OCI-P5x (papillary serous) and OCI-C5x (clear cell). Knock-down reagent: siRNA pool against human genes, 1.25 pmol siRNA per well. Timing: 72 h or 96 h, depending on the cell culture. Conditions: rucaparib 20 µM (about IC30) or vehicle, present until read-out. Read-out: 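ATP luminescence measured at 72 or 96 h according to the culture, then normalised and expressed as percent viability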. Direction: viability, normalised: higher = more viable cells remaining. Active means: 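Active when normalised viability falls below 80 percent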. Meaning of the calls: active = viability under 80%; inactive = viability 80% or more.
Shown is one part, drawn at random, of about 2,100 deposited reagents. 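Calls flag viability under 80% in either arm, not effects specific to rucaparib; the reference for percent is not stated.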 Reagent sequences are not shown. Not given: the 100% reference.

gene knocked down | rucaparib or vehicle | cell line | technical replicate | viability, normalised (%) | Outcome
TOP3A | Rucaparib | OCI-C5x (clear cell) | 1 | 69.1 | active
TOP3A | Rucaparib | OCI-C5x (clear cell) | 2 | 60.2 | active
TOP3A | Rucaparib | OCI-C5x (clear cell) | 3 | 70.4 | active
TOP3A | Rucaparib | OCI-P5x (serous) | 1 | 93.3 | inactive
TOP3A | Rucaparib | OCI-P5x (serous) | 2 | 97.3 | inactive
TOP3A | Rucaparib | OCI-P5x (serous) | 3 | 75.9 | active
TOP3A | Vehicle | OCI-C5x (clear cell) | 1 | 63 | active
TOP3A | Vehicle | OCI-C5x (clear cell) | 2 | 62.4 | active
TOP3A | Vehicle | OCI-C5x (clear cell) | 3 | 73.6 | active
TOP3A | Vehicle | OCI-P5x (serous) | 1 | 74.6 | active
TOP3A | Vehicle | OCI-P5x (serous) | 2 | 88.7 | inactive
TOP3A | Vehicle | OCI-P5x (serous) | 3 | 82 | inactive
NSD3 | Rucaparib | OCI-C5x (clear cell) | 1 | 20.6 | active
NSD3 | Rucaparib | OCI-C5x (clear cell) | 2 | 14.2 | active
NSD3 | Rucaparib | OCI-C5x (clear cell) | 3 | 15.9 | active
NSD3 | Rucaparib | OCI-P5x (serous) | 1 | 36.4 | active
NSD3 | Rucaparib | OCI-P5x (serous) | 2 | 38.9 | active
NSD3 | Rucaparib | OCI-P5x (serous) | 3 | 32.8 | active
NSD3 | Vehicle | OCI-C5x (clear cell) | 1 | 18.6 | active
NSD3 | Vehicle | OCI-C5x (clear cell) | 2 | 20 | active
NSD3 | Vehicle | OCI-C5x (clear cell) | 3 | 14.1 | active
NSD3 | Vehicle | OCI-P5x (serous) | 1 | 52.1 | active
NSD3 | Vehicle | OCI-P5x (serous) | 2 | 43.5 | active
NSD3 | Vehicle | OCI-P5x (serous) | 3 | 42.8 | active
HFM1 | Rucaparib | OCI-C5x (clear cell) | 1 | 61.9 | active
HFM1 | Rucaparib | OCI-C5x (clear cell) | 2 | 37.7 | active
HFM1 | Rucaparib | OCI-C5x (clear cell) | 3 | 58.7 | active
HFM1 | Rucaparib | OCI-P5x (serous) | 1 | 83.7 | inactive
HFM1 | Rucaparib | OCI-P5x (serous) | 2 | 78 | active
HFM1 | Rucaparib | OCI-P5x (serous) | 3 | 80.3 | inactive
HFM1 | Vehicle | OCI-C5x (clear cell) | 1 | 78.9 | active
HFM1 | Vehicle | OCI-C5x (clear cell) | 2 | 58.8 | active
HFM1 | Vehicle | OCI-C5x (clear cell) | 3 | 76.6 | active
HFM1 | Vehicle | OCI-P5x (serous) | 1 | 79.6 | active
HFM1 | Vehicle | OCI-P5x (serous) | 2 | 71.7 | active
HFM1 | Vehicle | OCI-P5x (serous) | 3 | 84.4 | inactive
CDK6 | Rucaparib | OCI-C5x (clear cell) | 1 | 59.9 | active
CDK6 | Rucaparib | OCI-C5x (clear cell) | 2 | 59.6 | active
CDK6 | Rucaparib | OCI-C5x (clear cell) | 3 | 49.5 | active
CDK6 | Rucaparib | OCI-P5x (serous) | 1 | 69.4 | active
CDK6 | Rucaparib | OCI-P5x (serous) | 2 | 51.5 | active
CDK6 | Rucaparib | OCI-P5x (serous) | 3 | 77.6 | active
CDK6 | Vehicle | OCI-C5x (clear cell) | 1 | 79.5 | active
CDK6 | Vehicle | OCI-C5x (clear cell) | 2 | 53 | active
CDK6 | Vehicle | OCI-C5x (clear cell) | 3 | 62.5 | active
CDK6 | Vehicle | OCI-P5x (serous) | 1 | 87.8 | inactive
CDK6 | Vehicle | OCI-P5x (serous) | 2 | 81.7 | inactive
CDK6 | Vehicle | OCI-P5x (serous) | 3 | 76.3 | active

Sorted by “viability, normalised (%)” (high to low): 8 of the entries above.
gene knocked down | rucaparib or vehicle | cell line | technical replicate | viability, normalised (%) | Outcome
TOP3A | Vehicle | OCI-P5x (serous) | 2 | 88.7 | inactive
TOP3A | Vehicle | OCI-P5x (serous) | 3 | 82 | inactive
NSD3 | Rucaparib | OCI-P5x (serous) | 2 | 38.9 | active
NSD3 | Rucaparib | OCI-P5x (serous) | 1 | 36.4 | active
NSD3 | Rucaparib | OCI-P5x (serous) | 3 | 32.8 | active
NSD3 | Rucaparib | OCI-C5x (clear cell) | 1 | 20.6 | active
NSD3 | Rucaparib | OCI-C5x (clear cell) | 3 | 15.9 | active
NSD3 | Rucaparib | OCI-C5x (clear cell) | 2 | 14.2 | active
